{"source": "PubChem BioAssay AID485364", "about": "(National Center for Advancing Translational Sciences (NCATS), 2010)", "note": "What follows is the remainder of the data, with few or none of the hits. Calls of active or inactive are those of the source. The call rests on the fitted dose curve; in most records, active means well fitted inhibition curve with a large enough effect; inconclusive means small, poorly fitted or top-dose-only effect; inactive means no such curve, though single readings can be large or run the other way. On the % scale 0 is the no-effect control and ±100 the full control effect.", "data": [{"biological_target": "Schistosoma mansoni thioredoxin glutathione reductase (TGR) (UniProt Q962Y6)", "assay": "qHTS Assay for the Inhibitors of Schistosoma Mansoni Peroxiredoxins; further: nearly all actives have a fitted effect of over 60% in size", "settings": "purified TGR, DTNB reduction, TNB absorbance 405 nm; at 114 µM (top of the series)", "description": "Schistosomiasis is a major neglected tropical disease that currently affects over 200 million. It is caused by different species of flatworms, such as Schistosoma mansoni. Over the last century, drugs to treat the disease have evolved from potassium antimonyl tartrate, artemisinin, oxamniquine, to praziquantel, with praziquantel remaining the universally-used single drug of choice over the past three decades. However, transmission rates have changed little with praziquantel, and there is evidence for the development of drug resistant parasites. Because there is currently no suitable alternative therapy available, there is an urgent need to identify new targets and drugs for schistosomiasis treatment. […] Recently, a quantitative high-throughput screen of the NIH Molecular Libraries Small Molecule Repository (MLSMR, ~71K at the time of the screen in 2007) was performed using an assay that targeted both TGR and peroxiredoxin2 (Prx2, an H2O2-reducing enzymatic component of the S. mansoni redox \"firewall\") by following the decrease of NADPH fluorescence. […] In addition, the fluorescence assay was also subject to fluorescence interference from compound library members. […] The assay followed the reduction of 5, 5'-dithiobis (2-nitrobenzoic acid) (DTNB) (Ellman's reagent) by NADPH and measured the increase in absorbance at 412 nm of the reaction product, TNB. […]", "values": [{"smiles": "CC(C)(C(=O)O)c1ccc([C@H](O)CCCN2CCC(C(O)(c3ccccc3)c3ccccc3)CC2)cc1", "activity change, negative = inhibition": "inactive: 13.8%"}, {"smiles": "CC(C)(C(=O)O)c1ccc(C(O)CCCN2CCC(C(O)(c3ccccc3)c3ccccc3)CC2)cc1", "note": "(configuration not stated)", "activity change, negative = inhibition": "inactive: -2.78%"}]}]}
